Results on 54 sequences are retold here after PMC7819943, “Rice protein-binding microarrays: a tool to detect cis-acting elements near promoter regions in rice”.

Protein sequences, listed by entry. Tags and fused reporters are not part of them.
UniProt Q0JBA9, entry or part of it: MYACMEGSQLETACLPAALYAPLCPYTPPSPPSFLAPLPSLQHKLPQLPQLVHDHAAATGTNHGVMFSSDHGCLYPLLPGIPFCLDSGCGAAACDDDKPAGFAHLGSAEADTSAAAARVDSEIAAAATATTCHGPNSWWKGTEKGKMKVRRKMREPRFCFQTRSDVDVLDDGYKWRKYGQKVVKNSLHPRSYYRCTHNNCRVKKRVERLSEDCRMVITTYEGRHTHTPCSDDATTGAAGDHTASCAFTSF

The other results are listed elsewhere or left out.

The assay concerns the target OsWRKY34 (Oryza sativa, UniProt Q0JBA9 1-250). Put plainly: protein-binding microarray (RPBM); PBS, 2% BSA, 51.3 ng/ul salmon testes DNA, 50 uM zinc acetate, 200 nM TF, 25 C, 1 h; high values mean tight binding. The following applies: protein: recombinant; tags: N-terminal polyhistidine and DsRed monomer fusion (pET32a); label: CyDye5-dUTP incorporated in the synthesized complementary strand; 3' TTTTT single-stranded linker to array surface; dsDNA, one strand shown. In a few lines:
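For the binding signal, per-feature fluorescence intensity was read in arbitrary units on an Axon 4000B scanner. Before scanning, a 2% BSA-blocked custom Agilent array made double-stranded with Cy5-dUTP was washed after 1 h at 25 °C with 200 nM protein and 50 µM zinc acetate. The proteins were Ni–NTA-purified transcription factors with N-terminal polyhistidine and DsRed fusions, expressed in E. coli BL21-CodonPlus.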
For the sequence “CTCCTGATCCTCTGCTCATCGTAGAAATCGCGATCGCCATCGGAGTCACCTAGTGCAG”, the binding signal is 11300 fluorescence intensity (a.u.).
Regarding “TCACATTGTAACACACAGGCACTTTTGCTAGACCAAACAACGGAGTCACCTAGTGCAG”, the binding signal was 8040 fluorescence intensity (a.u.).
In the case of “CCGGGACGTGTGCCGCCGCTTAAGCCCGCTCTTTATACGTCGGAGTCACCTAGTGCAG”, the binding signal was 9690 fluorescence intensity (a.u.).
Take “GCCGTTCCTGGCCCCGCCGCCGCCGCCGCCACCGGGCCCGCGGAGTCACCTAGTGCAG”: the binding signal is 8830 fluorescence intensity (a.u.).
Regarding “ATAACTGCACCACACGCGCTTACTCATCTCTCTCAACACGCGGAGTCACCTAGTGCAG”, the binding signal is 12000 fluorescence intensity (a.u.).
Take “GTACCTTCGACGCTTCGCCTTGTCAGTCACTGTCCCCTTCCGGAGTCACCTAGTGCAG”: the binding signal is 8790 fluorescence intensity (a.u.).
Take “TGTGTTTTTTTCCTTTGGGTGTGTGGTACTCTGTTGTATCCGGAGTCACCTAGTGCAG”: the binding signal is 10500 fluorescence intensity (a.u.).
Consider “AGTACTTGCCCTTTCCGTAGCGTGATGGTTGCGTTGGGTTCGGAGTCACCTAGTGCAG”, for which the binding signal is 8810 fluorescence intensity (a.u.).
As to “TTCCGTGTACAACTTTGACTGTCCGTCTTATATAAAATTTCGGAGTCACCTAGTGCAG”, the binding signal was 9770 fluorescence intensity (a.u.).
On to “TTGACAGCGGCGTTCTTCATTGCTGGTTTCTTAATACAATCGGAGTCACCTAGTGCAG”, for which the binding signal is 8080 fluorescence intensity (a.u.).
On to “ATCTGGTCTCTGCTGCATGCATGGATTTGATCACCATTTACGGAGTCACCTAGTGCAG”, for which the binding signal was 8980 fluorescence intensity (a.u.).
As to “CATCTTACCTTACGTCCACCGCATCTCATCCTTTGCTGTTCGGAGTCACCTAGTGCAG”, the binding signal was 12200 fluorescence intensity (a.u.).
On to “TGTTGTGTGTTAGTTGTGGTGGTAGCATTTTTTCCTGGTACGGAGTCACCTAGTGCAG”, for which the binding signal is 13000 fluorescence intensity (a.u.).
Consider “TTTATTTGCGTTTAGGTCCTCGTCTGGACCTGGCTGCGATCGGAGTCACCTAGTGCAG”, for which the binding signal was 8500 fluorescence intensity (a.u.).
On to “ATGCTGCATTTCATTTTGTTTTTGTTTTTTTTTTCATTTCCGGAGTCACCTAGTGCAG”, for which the binding signal is 8820 fluorescence intensity (a.u.).
Turning to “GGGCAGAGATACAGTGTATTCATCGTGGTCATATGACCTCCGGAGTCACCTAGTGCAG”, the binding signal was 9790 fluorescence intensity (a.u.).
Turning to “ATTGATCTATCGTTTTTATCGTTTATTTGCCGATTGTTTCCGGAGTCACCTAGTGCAG”, the binding signal is 13000 fluorescence intensity (a.u.).
Turning to “TACCCTGTTTCATTTTGGGTTTAGGATCTATTGAACAGTTCGGAGTCACCTAGTGCAG”, the binding signal was 8060 fluorescence intensity (a.u.).
Consider “GCATCGCAATGCCTTCTTCACGTGCCTATTCTTGTTTCTTCGGAGTCACCTAGTGCAG”, for which the binding signal is 8330 fluorescence intensity (a.u.).
Turning to “TCTCACGTACGCCTCCACTCGTTTCCTTCTCCCTTCGCTTCGGAGTCACCTAGTGCAG”, the binding signal was 8160 fluorescence intensity (a.u.).
In the case of “CATTTCCGCGAGCTCTCTCTTCGGATATTTTCGCTCCCACCGGAGTCACCTAGTGCAG”, the binding signal was 8340 fluorescence intensity (a.u.).
On to “GGACCGTTCACTAACCCCGTAACCGTGTCGCGCGCGCAACCGGAGTCACCTAGTGCAG”, for which the binding signal was 9590 fluorescence intensity (a.u.).
With “GTGGTGGTGAGGGCGCAGTTGCGGGTGACGTCGTCGAAGACGGAGTCACCTAGTGCAG”, the binding signal was 8080 fluorescence intensity (a.u.).
Then “ATGCTGACCTTTTGTTTTGCTTCACTACACTCGCAACAAACGGAGTCACCTAGTGCAG”, with 8650 fluorescence intensity (a.u.).
With “CACCACACACCACGCCACTCGCCTCGCCTCGCACAGTCGCCGGAGTCACCTAGTGCAG”, the binding signal was 9430 fluorescence intensity (a.u.).
In the case of “TAGTTTTTTTAGTGCCTGAACATCCTATATAATATCCGATCGGAGTCACCTAGTGCAG”, the binding signal was 8070 fluorescence intensity (a.u.).
Regarding “TTTTACATGTTTTTTAGATTTTTTTTATTTTTCGTCTTTTCGGAGTCACCTAGTGCAG”, the binding signal is 11200 fluorescence intensity (a.u.).
Then “GCCAACCATTCCAACCATGTCAGCCACCCAATAAATATTTCGGAGTCACCTAGTGCAG”, with 8920 fluorescence intensity (a.u.); and “ATCATTTTCTACTAGTTGCGTTTGACCGAGGGACTAAGAGCGGAGTCACCTAGTGCAG”, with 9590 fluorescence intensity (a.u.); and “GTATCTGTATCTACGTATTTAAGTCTGTCTTTACATACCTCGGAGTCACCTAGTGCAG”, with 9830 fluorescence intensity (a.u.).
On to “GCTGACGGCTCACGTCTTCTTTTTCTTTTTTCGAACGACTCGGAGTCACCTAGTGCAG”, for which the binding signal is 8820 fluorescence intensity (a.u.).
Consider “GTAGCTGTCCCCATCTCTACAATATCCAGCACCCAGCAAACGGAGTCACCTAGTGCAG”, for which the binding signal is 8080 fluorescence intensity (a.u.).
In the case of “CGCCCGTCGTTTGCCTATCTACTACCCGTGGTAGCCTCCACGGAGTCACCTAGTGCAG”, the binding signal was 8260 fluorescence intensity (a.u.).
As to “CTTTGGACCACCCAACACACTTATTCATCTACATCCAACACGGAGTCACCTAGTGCAG”, the binding signal was 9210 fluorescence intensity (a.u.).
The figure for “ATGGACATTTAACCTCTCGTGTGCCCTCACTAACCACGCGCGGAGTCACCTAGTGCAG” is 8430 fluorescence intensity (a.u.).
Then “CTATTACTTACCATTTCTGGCCCTATTGTCCCATATTTCCCGGAGTCACCTAGTGCAG”, with 14800 fluorescence intensity (a.u.); and “CTTCCCCATCCAATTTTTTAGTCTTATTGCCGTTGTTTCGCGGAGTCACCTAGTGCAG”, with 9260 fluorescence intensity (a.u.); and “GCAGGGACAAGTTCTTTTGTTTATTAATTTAAATATGTTACGGAGTCACCTAGTGCAG”, with 9250 fluorescence intensity (a.u.).
As to “CGGTCGCTGAATTTTTCCTTCCCGGTTTCCATTGACCTTGCGGAGTCACCTAGTGCAG”, the binding signal is 9490 fluorescence intensity (a.u.).
The figure for “GATTCTTGGGTTTTTCCCTTTCCGCAGCTTTCCGCGCACGCGGAGTCACCTAGTGCAG” is 9650 fluorescence intensity (a.u.); for “CACGCCGACGACCCGCGCACACGCCGGCTTCTTCGTCCTCCGGAGTCACCTAGTGCAG” it is 9140 fluorescence intensity (a.u.).
As for “CCTGTGACCCCTTCTCTCATTTCTCTCCCACGCAAGTTCTCGGAGTCACCTAGTGCAG”, the binding signal was 8660 fluorescence intensity (a.u.).
The figure for “CCTCTGCTTTCCTCTCACCCCACCGCGCCACCGGCGAGCGCGGAGTCACCTAGTGCAG” is 8400 fluorescence intensity (a.u.); for “TCCAATTGAGGTTGCTGGCACCAATCCTGTTTGCCTATTCCGGAGTCACCTAGTGCAG” it is 10400 fluorescence intensity (a.u.).
Then “CGCACTCCTCTCCCGCGCTCATCCGTTCGTCTGTCGTCTGCGGAGTCACCTAGTGCAG”, with 10600 fluorescence intensity (a.u.).
For “GCTTCACTTCCAAAATGTTCATGCACTTTCCCACCGCATGCGGAGTCACCTAGTGCAG”, the binding signal is 9340 fluorescence intensity (a.u.).
Regarding “CTTCTTTACACAGTTCGTTCACTTCAAAGCATTTGCACATCGGAGTCACCTAGTGCAG”, the binding signal is 9560 fluorescence intensity (a.u.).
For the sequence “TACCCACACACACACAAGAACACGCGCCACATTTGTCATTCGGAGTCACCTAGTGCAG”, the binding signal is 10900 fluorescence intensity (a.u.).
Turning to “ATATATACCAATGATTGTGTCGACATTATATTGCACACTACGGAGTCACCTAGTGCAG”, the binding signal was 8290 fluorescence intensity (a.u.).
As for “AAACCTACTCTATTCATCATGCGCTAATGGCCTAATTCGTCGGAGTCACCTAGTGCAG”, the binding signal is 10700 fluorescence intensity (a.u.).
“CTCCGCCCTCCGCCGCCTCCGTTGCCAACCGCCACCGTCCCGGAGTCACCTAGTGCAG”: the binding signal was 8510 fluorescence intensity (a.u.).
Regarding “GTGGGAATGCAGTTTTGCTATCAATTGTTTGTCTTTTTACCGGAGTCACCTAGTGCAG”, the binding signal is 8340 fluorescence intensity (a.u.).
Turning to “CTGCTGCGCCTGTCTCATGTTTATGCTCCTTACTAAAACGCGGAGTCACCTAGTGCAG”, the binding signal was 8400 fluorescence intensity (a.u.).
The figure for “GATCCTGCATCCAACACGGCATCATAATCATCAGTCATTCCGGAGTCACCTAGTGCAG” is 8880 fluorescence intensity (a.u.).
